Data as given in US20100003244A1 (TRIGEN, published 2010).
These are yes or no findings as the source states them, for the method shown. Ends that are not written are not given here.

How the values were obtained:
Assay in all cases: PepSpot array
GPVI peptide 51 (human) = target: T1, GPVI peptide 51 (human)
T1 sequence (peptide, N-terminus acetylated): DQLELVATGVFAK

GPVI peptide 102 (human) = target: T2, GPVI peptide 102 (human)
T2 sequence (peptide, N-terminus acetylated): TGTSVTPSRLPTE

GPVI peptide 92 (human) = target: T3, GPVI peptide 92 (human)
T3 sequence (peptide, N-terminus acetylated): FSSRDPYLWSAPS

GPVI peptide 20 (human) = target: T4, GPVI peptide 20 (human)
T4 sequence (peptide, N-terminus acetylated): PLEKPVTLRCQGP

GPVI peptide 72 (human) = target: T5, GPVI peptide 72 (human)
T5 sequence (peptide, N-terminus acetylated): FALYKEGDPAPYK

GPVI peptide 70 (human) = target: T6, GPVI peptide 70 (human)
T6 sequence (peptide, N-terminus acetylated): GFDQFALYKEGDP

GPVI peptide 101 (human) = target: T7, GPVI peptide 101 (human)
T7 sequence (peptide, N-terminus acetylated): VVTGTSVTPSRLP

GPVI peptide 60 (human) = target: T8, GPVI peptide 60 (human)
T8 sequence (peptide, N-terminus acetylated): QPGPAVSSGGDVT

GPVI peptide 42 (human) = target: T9, GPVI peptide 42 (human)
T9 sequence (peptide, N-terminus acetylated): AGRYRCSYQNGSL

GPVI peptide 128 (human) = target: T10, GPVI peptide 128 (human)
T10 sequence (peptide, N-terminus acetylated): DSPAGPARQYYTK

GPVI peptide 98 (human) = target: T11, GPVI peptide 98 (human)
T11 sequence (peptide, N-terminus acetylated): SDPLELVVTGTSV

GPVI peptide 116 (human) = target: T12, GPVI peptide 116 (human)
T12 sequence (peptide, N-terminus acetylated): TVSFTNKVFTTET

GPVI peptide 17 (human) = target: T13, GPVI peptide 17 (human)
T13 sequence (peptide, N-terminus acetylated): LPSSLVPLEKPVT

GPVI peptide 89 (human) = target: T14, GPVI peptide 89 (human)
T14 sequence (peptide, N-terminus acetylated): TYRCYSFSSRDPY

GPVI peptide 84 (human) = target: T15, GPVI peptide 84 (human)
T15 sequence (peptide, N-terminus acetylated): IITVTAAHSGTYR

GPVI peptide 113 (human) = target: T16, GPVI peptide 113 (human)
T16 sequence (peptide, N-terminus acetylated): EATAELTVSFTNK

GPVI peptide 40 (human) = target: T17, GPVI peptide 40 (human)
T17 sequence (peptide, N-terminus acetylated): KRSLAGRYRCSYQ

GPVI peptide 110 (human) = target: T18, GPVI peptide 110 (human)
T18 sequence (peptide, N-terminus acetylated): SVAEFSEATAELT

GPVI peptide 76 (human) = target: T19, GPVI peptide 76 (human)
T19 sequence (peptide, N-terminus acetylated): PAPYKNPERWYRA

GPVI peptide 87 (human) = target: T20, GPVI peptide 87 (human)
T20 sequence (peptide, N-terminus acetylated): AHSGTYRCYSFSS

GPVI peptide 68 (human) = target: T21, GPVI peptide 68 (human)
T21 sequence (peptide, N-terminus acetylated): QTRYGFDQFALYK

GPVI peptide 82 (human) = target: T22, GPVI peptide 82 (human)
T22 sequence (peptide, N-terminus acetylated): ASFPIITVTAAHS

GPVI peptide 80 (human) = target: T23, GPVI peptide 80 (human)
T23 sequence (peptide, N-terminus acetylated): RWYRASFPIITVT

GPVI peptide 69 (human) = target: T24, GPVI peptide 69 (human)
T24 sequence (peptide, N-terminus acetylated): RYGFDQFALYKEG

GPVI peptide 125 (human) = target: T25, GPVI peptide 125 (human)
T25 sequence (peptide, N-terminus acetylated): TSPKESDSPAGPA

GPVI peptide 26 (human) = target: T26, GPVI peptide 26 (human)
T26 sequence (peptide, N-terminus acetylated): PPGVDLYRLEKLS

GPVI peptide 100 (human) = target: T27, GPVI peptide 100 (human)
T27 sequence (peptide, N-terminus acetylated): ELVVTGTSVTPSR

GPVI peptide 25 (human) = target: T28, GPVI peptide 25 (human)
T28 sequence (peptide, N-terminus acetylated): QGPPGVDLYRLEK

GPVI peptide 103 (human) = target: T29, GPVI peptide 103 (human)
T29 sequence (peptide, N-terminus acetylated): TSVTPSRLPTEPP

GPVI peptide 96 (human) = target: T30, GPVI peptide 96 (human)
T30 sequence (peptide, N-terminus acetylated): WSAPSDPLELVVT

GPVI peptide 43 (human) = target: T31, GPVI peptide 43 (human)
T31 sequence (peptide, N-terminus acetylated): RYRCSYQNGSLWS

GPVI peptide 19 (human) = target: T32, GPVI peptide 19 (human)
T32 sequence (peptide, N-terminus acetylated): LVPLEKPVTLRCQ

GPVI peptide 34 (human) = target: T33, GPVI peptide 34 (human)
T33 sequence (peptide, N-terminus acetylated): YQDQAVLFIPAMK

GPVI peptide 97 (human) = target: T34, GPVI peptide 97 (human)
T34 sequence (peptide, N-terminus acetylated): APSDPLELVVTGT

GPVI peptide 112 (human) = target: T35, GPVI peptide 112 (human)
T35 sequence (peptide, N-terminus acetylated): FSEATAELTVSFT

GPVI peptide 30 (human) = target: T36, GPVI peptide 30 (human)
T36 sequence (peptide, N-terminus acetylated): LEKLSSSRYQDQA

GPVI peptide 46 (human) = target: T37, GPVI peptide 46 (human)
T37 sequence (peptide, N-terminus acetylated): QNGSLWSLPSDQL

GPVI peptide 22 (human) = target: T38, GPVI peptide 22 (human)
T38 sequence (peptide, N-terminus acetylated): PVTLRCQGPPGVD

GPVI peptide 31 (human) = target: T39, GPVI peptide 31 (human)
T39 sequence (peptide, N-terminus acetylated): KLSSSRYQDQAVL

GPVI peptide 108 (human) = target: T40, GPVI peptide 108 (human)
T40 sequence (peptide, N-terminus acetylated): EPPSSVAEFSEAT

GPVI peptide 106 (human) = target: T41, GPVI peptide 106 (human)
T41 sequence (peptide, N-terminus acetylated): RLPTEPPSSVAEF

GPVI peptide 71 (human) = target: T42, GPVI peptide 71 (human)
T42 sequence (peptide, N-terminus acetylated): DQFALYKEGDPAP

GPVI peptide 28 (human) = target: T43, GPVI peptide 28 (human)
T43 sequence (peptide, N-terminus acetylated): DLYRLEKLSSSRY

GPVI peptide 107 (human) = target: T44, GPVI peptide 107 (human)
T44 sequence (peptide, N-terminus acetylated): PTEPPSSVAEFSE

GPVI peptide 99 (human) = target: T45, GPVI peptide 99 (human)
T45 sequence (peptide, N-terminus acetylated): PLELVVTGTSVTP

GPVI peptide 6 (human) = target: T46, GPVI peptide 6 (human)
T46 sequence (peptide, N-terminus acetylated): LGLCLGRVPAQSG

GPVI peptide 50 (human) = target: T47, GPVI peptide 50 (human)
T47 sequence (peptide, N-terminus acetylated): PSDQLELVATGVF

GPVI peptide 75 (human) = target: T48, GPVI peptide 75 (human)
T48 sequence (peptide, N-terminus acetylated): GDPAPYKNPERWY

GPVI peptide 104 (human) = target: T49, GPVI peptide 104 (human)
T49 sequence (peptide, N-terminus acetylated): VTPSRLPTEPPSS

GPVI peptide 3 (human) = target: T50, GPVI peptide 3 (human)
T50 sequence (peptide, N-terminus acetylated): PTALFCLGLCLGR

GPVI peptide 27 (human) = target: T51, GPVI peptide 27 (human)
T51 sequence (peptide, N-terminus acetylated): GVDLYRLEKLSSS

GPVI peptide 59 (human) = target: T52, GPVI peptide 59 (human)
T52 sequence (peptide, N-terminus acetylated): SAQPGPAVSSGGD

GPVI peptide 91 (human) = target: T53, GPVI peptide 91 (human)
T53 sequence (peptide, N-terminus acetylated): YSFSSRDPYLWSA

GPVI peptide 48 (human) = target: T54, GPVI peptide 48 (human)
T54 sequence (peptide, N-terminus acetylated): LWSLPSDQLELVA

- binding (GPVI peptide 51 (human)): no binding (tested: 500 LU)
- binding (GPVI peptide 102 (human)): no binding (tested: 500 LU)
- binding (GPVI peptide 92 (human)): no binding (tested: 500 LU)
- binding (GPVI peptide 20 (human)): no binding (tested: 500 LU)
- binding (GPVI peptide 72 (human)): no binding (tested: 500 LU)
- binding (GPVI peptide 70 (human)): no binding (tested: 500 LU)
- binding (GPVI peptide 101 (human)): no binding (tested: 500 LU)
- binding (GPVI peptide 60 (human)): no binding (tested: 500 LU)
- binding (GPVI peptide 42 (human)): no binding (tested: 500 LU)
- binding (GPVI peptide 128 (human)): no binding (tested: 500 LU)
- binding (GPVI peptide 98 (human)): no binding (tested: 500 LU)
- binding (GPVI peptide 116 (human)): no binding (tested: 500 LU)
- binding (GPVI peptide 17 (human)): no binding (tested: 500 LU)
- binding (GPVI peptide 89 (human)): no binding (tested: 500 LU)
- binding (GPVI peptide 84 (human)): no binding (tested: 500 LU)
- binding (GPVI peptide 113 (human)): no binding (tested: 500 LU)
- binding (GPVI peptide 40 (human)): no binding (tested: 500 LU)
- binding (GPVI peptide 110 (human)): no binding (tested: 500 LU)
- binding (GPVI peptide 76 (human)): no binding (tested: 500 LU)
- binding (GPVI peptide 87 (human)): no binding (tested: 500 LU)
- binding (GPVI peptide 68 (human)): no binding (tested: 500 LU)
- binding (GPVI peptide 82 (human)): no binding (tested: 500 LU)
- binding (GPVI peptide 80 (human)): no binding (tested: 500 LU)
- binding (GPVI peptide 69 (human)): no binding (tested: 500 LU)
- binding (GPVI peptide 125 (human)): no binding (tested: 500 LU)
- binding (GPVI peptide 26 (human)): no binding (tested: 500 LU)
- binding (GPVI peptide 100 (human)): no binding (tested: 500 LU)
- binding (GPVI peptide 25 (human)): no binding (tested: 500 LU)
- binding (GPVI peptide 103 (human)): no binding (tested: 500 LU)
- binding (GPVI peptide 96 (human)): no binding (tested: 500 LU)
- binding (GPVI peptide 43 (human)): no binding (tested: 500 LU)
- binding (GPVI peptide 19 (human)): no binding (tested: 500 LU)
- binding (GPVI peptide 34 (human)): no binding (tested: 500 LU)
- binding (GPVI peptide 97 (human)): no binding (tested: 500 LU)
- binding (GPVI peptide 112 (human)): no binding (tested: 500 LU)
- binding (GPVI peptide 30 (human)): no binding (tested: 500 LU)
- binding (GPVI peptide 46 (human)): no binding (tested: 500 LU)
- binding (GPVI peptide 22 (human)): no binding (tested: 500 LU)
- binding (GPVI peptide 31 (human)): no binding (tested: 500 LU)
- binding (GPVI peptide 108 (human)): no binding (tested: 500 LU)
- binding (GPVI peptide 106 (human)): no binding (tested: 500 LU)
- binding (GPVI peptide 71 (human)): no binding (tested: 500 LU)
- binding (GPVI peptide 28 (human)): no binding (tested: 500 LU)
- binding (GPVI peptide 107 (human)): no binding (tested: 500 LU)
- binding (GPVI peptide 99 (human)): no binding (tested: 500 LU)
- binding (GPVI peptide 6 (human)): no binding (tested: 500 LU)
- binding (GPVI peptide 50 (human)): no binding (tested: 500 LU)
- binding (GPVI peptide 75 (human)): no binding (tested: 500 LU)
- binding (GPVI peptide 104 (human)): no binding (tested: 500 LU)
- binding (GPVI peptide 3 (human)): no binding (tested: 500 LU)
- binding (GPVI peptide 27 (human)): no binding (tested: 500 LU)
- binding (GPVI peptide 59 (human)): no binding (tested: 500 LU)
- binding (GPVI peptide 91 (human)): no binding (tested: 500 LU)
- binding (GPVI peptide 48 (human)): no binding (tested: 500 LU)
B1: monoclonal antibody hGP 5C4 (antibody, V domains shown)
VH: EVKLQESGGGLVQPGRSLKLSCTASGFTFSDYFMSWVRQAPTRGLEWVASISSGGASAYWRDSVKGRFTISRDNAKSALYLQMDSLRSEDTATYFCARGELDFDYWGQGVMVAVSS
VL: ADPNSTLLSASVGDRVTLNCTASQNVYKNLAWYQQKLGEAPRLLLYSANSQTGIPSRFSGSGSGPDFTLTISSLQPEDVASYFCQQYYSGNTFGAGTKLELKR
notes: Monoclonal IgG from Lou/C rats immunized with Fc-GPVI-nt; also called ab 5C4; anti-GPVI mAb 5C4
